Measured values published in paper PMC8495450.
Results are given in words; binding and its absence hold for the method and conditions named. Where a sequence is shown, tags or fusion partners need not be part of it.

Sequences of proteins named here, by UniProt entry; tags and fusion partners are left off.
UniProt Q9Y5S8: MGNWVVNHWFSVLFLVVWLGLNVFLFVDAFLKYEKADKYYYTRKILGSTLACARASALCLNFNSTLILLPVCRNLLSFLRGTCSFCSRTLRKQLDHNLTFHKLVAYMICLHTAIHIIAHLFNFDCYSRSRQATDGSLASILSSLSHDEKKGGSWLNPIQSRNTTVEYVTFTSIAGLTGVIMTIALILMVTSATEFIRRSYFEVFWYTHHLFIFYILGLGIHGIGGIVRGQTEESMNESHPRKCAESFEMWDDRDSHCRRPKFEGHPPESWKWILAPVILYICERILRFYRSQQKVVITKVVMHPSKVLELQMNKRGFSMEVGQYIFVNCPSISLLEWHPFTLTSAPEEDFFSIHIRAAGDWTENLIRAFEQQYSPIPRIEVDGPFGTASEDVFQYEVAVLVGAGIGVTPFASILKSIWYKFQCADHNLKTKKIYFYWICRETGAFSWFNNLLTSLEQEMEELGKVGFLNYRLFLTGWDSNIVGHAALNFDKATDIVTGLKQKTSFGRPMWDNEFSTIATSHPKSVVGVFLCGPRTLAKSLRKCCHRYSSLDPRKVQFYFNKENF

Molecular target: T1, Gst‐Pdia4 (recombinant) (UniProt P13667)
T1 sequence: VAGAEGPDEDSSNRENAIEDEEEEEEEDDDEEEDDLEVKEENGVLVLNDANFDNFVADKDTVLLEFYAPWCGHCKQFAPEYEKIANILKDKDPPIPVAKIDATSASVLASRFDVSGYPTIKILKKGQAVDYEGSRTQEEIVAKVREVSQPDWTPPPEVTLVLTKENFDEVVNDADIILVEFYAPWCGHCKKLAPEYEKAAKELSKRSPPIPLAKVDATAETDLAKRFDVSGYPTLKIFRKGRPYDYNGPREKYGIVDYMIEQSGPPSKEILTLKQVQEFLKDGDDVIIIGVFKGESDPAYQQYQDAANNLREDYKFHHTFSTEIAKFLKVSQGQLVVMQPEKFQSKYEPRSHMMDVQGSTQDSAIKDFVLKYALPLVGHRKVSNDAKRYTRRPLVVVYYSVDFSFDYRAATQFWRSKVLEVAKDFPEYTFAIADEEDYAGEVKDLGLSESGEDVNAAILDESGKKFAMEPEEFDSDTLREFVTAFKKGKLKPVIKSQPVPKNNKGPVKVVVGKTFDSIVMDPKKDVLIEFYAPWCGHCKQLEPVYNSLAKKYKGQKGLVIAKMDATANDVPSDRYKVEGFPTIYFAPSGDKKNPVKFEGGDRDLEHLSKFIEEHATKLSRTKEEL
Experiment: pull-down; recombinant Gst-Pdia4 incubated with His-tagged Nox1, Nox2, Nox3 or Nox4 for 1 h, then Gst beads; immunoblot; both purified

Substance: His‐tagged Nox1 (recombinant) (from UniProt Q9Y5S8 1-564)
- binding: no binding
